Reference: US11490622B2, “Substituted heterocycles as harmful arthropod controlling agents” (SUMITOMO CHEMICAL COMPANY, LIMITED, priority 2017, dated 2022)
Some of these results come from one statement about several compounds together.

What follows are compounds tested on cotton aphids (Aphis gossypii) (assay: Test method 1: foliar spray on cucumber seedling infested with cotton aphids). Conditions: 500 ppm, sprayed 10 mL/seedling on cucumber, surviving insects examined after 5 days, 25° C.
Format: in vivo
For `CCSc1c(-c2ccc(OCC(F)(F)C(F)(F)F)n(C)c2=O)nc2ccc(C(F)(F)F)cn12` [compound 1], the controlling value was at least 90%.
In the case of `CCSc1c(-c2ccc(OCC(F)(F)C(F)(F)F)n(C)c2=O)nc2ccccn12` [compound 2], the controlling value is reported as at least 90%.

Each compound was assayed on cotton aphids (Aphis gossypii) (assay: Test method 2: soil drench at foot of cucumber seedling, cotton aphids released later). Conditions: 1000 ppm, drenched 5 mL/seedling at foot of cucumber, aphids released after 7 days, examined after 6 days, 25° C.
Format: in vivo
For `CCS(=O)(=O)c1c(-c2ccc(OCC(F)(F)C(F)(F)F)n(C)c2=O)nc2ccccn12` [compound 8], the controlling value was at least 90%.
In the case of `CCS(=O)(=O)c1c(-c2cnc(OCC(F)(F)C(F)(F)F)n(C)c2=O)nc2ccccn12` [compound 11], the controlling value is reported as at least 90%.
`CCS(=O)(=O)c1c(-c2cnc(OCC(F)(F)C(F)(F)F)n(C)c2=S)nc2ccc(Cl)cn12` [compound 76] gave a controlling value of at least 90%.
Work on `CCS(=O)(=O)c1c(-c2cnc(OCC(F)(F)C(F)(F)F)n(C)c2=O)nc2nc(C(F)(F)F)ccn12` [compound 91] yielded a controlling value of at least 90%.
